Results are given as percent effect. How 0% and 100% were set is not recorded. Most values in the screen are low, and negative values occur. The compounds are a random part of those screened. Two or more numbers in one place are separate tests of the same structure; such repeats can differ widely.

A: 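Growth of Mycobacterium tuberculosis over 4 days (cholesterol / DPPC medium with tyloxapol); the read-out is not stated. Tested at 50 µM. Higher reads as more growth inhibition (inferred: compounds with an IC50 in retests scored well above the rest). About 69,000 compounds were tested under these conditions; 0.54% (about 370) showed 50% or more at least once.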
B: 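Whole-cell growth test on Mycobacterium tuberculosis, read after 3 days in glucose-containing 7H9 medium; the read-out is not stated. Compounds at 50 µM. Higher reads as more growth inhibition (inferred: compounds with an IC50 in retests scored well above the rest). About 69,000 compounds were tested under these conditions; 1.1% (about 760) showed 50% or more at least once.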

- COc1ccc(COCC(O)CNC(=O)c2cc(C)cc(C)c2)cc1 (stereo unspecified) | A: 9.753%; B: 11.68%
- CCN1CCOC(CNCc2cnc(C(C)(C)C)s2)C1 (stereo unspecified) | A: -8.979%; B: 6.292%
- Cc1cccc(OCCNC(=O)CN2CCN(C)CC2C)c1 (stereo unspecified) | A: -24.31%; B: -42.35%
- Cc1ccc(C(=O)N2CCC(O)(CN3CCc4ccccc4C3)C2)s1 (stereo unspecified) | A: 4.729%; B: 11.38%
- Cc1cc(C(=O)CN2CCN(c3nccs3)CC2)c(C)n1C1CC1 | A: -28.16%; B: 4.016% and -12.11%
- CN(C)Cc1cncc2c1CCN(CC(=O)N(C)C)C2 | A: -27.74%; B: -17.12%
- Cc1ccc(-c2cc(CS(=O)(=O)NC3CCCNC3=O)on2)cc1 (stereo unspecified) | A: 53.31%; B: 34.22%
- COC(=O)NCc1ccc(NC(=O)CC2=CCCCC2)cc1 | A: 14.1% and 7.396%; B: 5.266% and 20.11%
- O=C(CS(=O)(=O)C1CCCC1)NC1CCc2nccn2C1 (stereo unspecified) | A: -24.23% and -17.29%; B: -47.95%
- COCCN(Cc1cccnc1)S(=O)(=O)c1cc(C)ccc1F | A: -9.575% and 5.337%; B: 17.35%
- CC(C)n1cc(CN2CCCN(C(=O)c3cccn3C)CC2)cn1 | A: -1.11% and -11.47%; B: -7.05%
- [H][C@@]12COC[C@]1(c1nc(C)no1)CN(C(=O)COC1CCCC1)C2 | A: -6.98%; B: -12.27%
- CC(Cn1ccnc1)NC(=O)NCCc1ccc(Cl)s1 (stereo unspecified) | A: -4.844%; B: -1.831% and -40.93%
- CC1CCN(CCNC(=O)C2CCN(C(=O)NC(C)C)CC2)CC1 | A: 20.34%; B: 11.34% and -4.022%
- COCCNc1nc(N2CCCC2)nc2nccnc12 | A: -20.25%; B: -1.398% and 27.1%
- COCCN1CCC2(CC1)CC(NC(=O)C1CC1)c1ccccc1O2.O=C(O)C(F)(F)F (stereo unspecified) | A: -8.532%; B: -25.32%
- CS(=O)(=O)CCCOc1cccc(-n2ccnc2)c1 | A: 4.947%; B: -0.4098% and -4.192%
- Cc1c(NC(=O)c2cccc(Br)c2)c(C(=O)N(C)C)nn1C | A: -3.875%; B: -21.64%
- COc1ccc(C2CC(=O)Nc3nc(N4CCOCC4)sc32)c(OC)c1 (stereo unspecified) | A: -0.6159%; B: 46.37%
- O=c1ccc(-n2ccnc2)nn1CCNS(=O)(=O)c1ccc(Cl)s1 | A: 12.55%; B: -4.674% and 14.52%
- CCCNC(=O)CCOc1cccc(F)c1 | A: -7.983%; B: 30.56%
- CCc1cnc(N)nc1NCCC(=O)NC1CCCCC1 | A: -0.4543%; B: -2.289% and 9.437%
- COc1ccc(CNCCc2cccc(C(N)=O)c2)cc1O | A: 1.152%; B: -24.89% and 22.8%
- CNC(=O)C1CCCCN1C(=O)c1csc(-c2ccc(C)cc2)n1 (stereo unspecified) | A: -2.716%; B: 10.02% and 2.456%
- c1cc(CNc2nnc(Cc3ccsc3)o2)cs1 | A: 5.696%; B: 24.84%
- O=C(NC1CC(=O)N(C2Cc3ccccc3C2)C1)c1cnccn1 (stereo unspecified) | A: -6.149% and 15.03%; B: -7.853%
- O=C(O)C(F)(F)F.[H][C@@]12OCCN(C(=O)N3CCCC3)[C@@]1([H])CC[C@@H]2Oc1ccccn1 | A: 0.09849%; B: 12.7%
- Cc1cc(C)nc(C2CCCN2C(=O)c2coc(C)n2)n1 (stereo unspecified) | A: -10.72%; B: -17.32%
- CC(C)CCN1CCNC(=O)C1CC(=O)N1CCc2sccc2C1 (stereo unspecified) | A: -20.15%; B: 16.73%
- O=C(Cc1ccc2c(c1)CCCC2)NCCc1ccccn1 | A: 2.733%; B: 10.02%
- CCS(=O)(=O)N1CCc2ccc(NC(=O)Nc3ccccc3C)cc21 | A: 1.895%; B: -0.6965%
- CO[C@H]1C[C@@H](O)C12CCN(C(=O)c1cccc(CCC(C)(C)O)c1)CC2 | A: -22.68%; B: 32.83%

The last 3 entries again:

- O=C(Cc1ccc2c(c1)CCCC2)NCCc1ccccn1 | A: 2.733%; B: 10.02%
- CCS(=O)(=O)N1CCc2ccc(NC(=O)Nc3ccccc3C)cc21 | A: 1.895%; B: -0.6965%
- CO[C@H]1C[C@@H](O)C12CCN(C(=O)c1cccc(CCC(C)(C)O)c1)CC2 | A: -22.68%; B: 32.83%

The values are deposited in ChEMBL (CHEMBL3988442, “University of Dundee, Small-Polar-MMV Screening Library” (2021)).